The data set in a line: Mutant probe screening: baseline fluorescence ratio Ro and fatty acid response phenotype. The class given is binding. As to conditions: fluorescence ratio for zero FFAu concentration. Here is the method: The intensity ratio (“R” value) for a given probe is determined. The ratio is calculated using the following formula: R=Fλ1/Fλ2 wherein, Fλ1, is the measured fluorescence intensities (intensity of sample with probe present minus intensity of sample without probe present) at wavelength 1 and Fλ2 is the measured fluorescence intensities (intensity of sample with probe present minus intensity of sample without probe present) at wavelength 2. Then, for a given probe, ΔR, the difference in R value between the measurement in the presence of the analyte and in the absence of the analyte, is calculated as follows: ΔR=R+analyte−R0 The ΔR value for a given probe is then compared to a reference probe, for example, ADIFAB or ADIFAB2, by ΔR/ΔRreference. This value is an indication of how dissimilar the new probe (derived by mutation of the template) is to the reference. By this method, probes with new and useful characteristics may be identified. Measurements of fluorescence intensities are obtained using standard techniques.
Plates were prepared and read in two stages. First, complexes and fatty acid free BSA were diluted to 6 μM BSA in HEPES and added to the 96-well plate at 300 μL per well. A MultiProbe II HT (Perkin Elmer) (an automated liquid handling system) was used to facilitate plate preparation for high throughput screening, but any automated or manual pipetting system will suffice. The background fluorescence was then measured at the same wavelengths as used for ADIFAB2 using a Fluorolog-3 spectrofluorometer with an external Micromax 384 fluorescence plate reader (Jobin Yvon). In the second stage, 30 μL aliquots of the mutant probes were added to multiple wells of the plate, one for each fatty acid and one with fatty acid free BSA only, and the fluorescence intensity at each wavelength was again measured on the plate reader. After subtraction of the background fluorescence, the fluorescence ratio of each well was calculated.
The fluorescence response was quantitatively compared to ADIFAB2 to search for changes in magnitude and fatty acid profile; for example the response to one fatty acid relative to another. For each probe the ratio differences (AR) between wells with each fatty acid compared to a corresponding well with fatty acid free BSA were recorded. The relative response compared to ADIFAB2 was calculated by dividing AR for each fatty acid by that for ADIFAB2 (ΔR/ΔRAD2). Probes that show large (ΔR/ΔRAD2) and different (ΔR/ΔRAD2) for different fatty acids were chosen for larger scale production and calibration. The methods described above can be used to screen other fatty acids and/or other unbound metabolites using other plate readers. We have attained equivalent results, for example, using the Gemini EM dedicated fluorescence plate reader (Molecular Devices).
Screening was conducted by evaluating ΔR/ΔRreference as described in paragraphs 0053-0055 and Example 1 for the following fatty acids: palmitate, palmitoleate, stearate, oleate, linoleate, linolenate and arachidonate, where the reference was to ADIFAB2. The screening rate was increased by use of 384 well plates. In this case the total well volume was reduced to 100 μL and the volume of probe used per well was 10 μL. Because the identity of each mutant probe was unknown in this example, the probes of interest were organized according to phenotype. Typically, phenotypic clusters could be generated by grouping unknown probes that gave Ro and ΔR/ΔRAD2 values within 10 to 20% of each other. The clone ID specifies the second library and well position of each clone. The fluorescence ratio for zero FFAu concentration (Ro) is shown in the second column. The remaining 7 columns are the ratios of the fluorescence response (R-Ro) for each probe relative to ADIFAB2 for arachidonate, linolenate, linoleate, oleate, palmitate, palmitoleate and stearate. […]

B1: L1P16 G10: acrylodan-labeled rI-FABP mutein: Y14 W, L38 wt, L72 M, Y117 A (protein, UniProt P02693 2-132, looked up, variant Y14W L72M Y117A)
Fatty acid-binding protein, …: AFDGTWKVDRNENWEKFMEKMGINVVKRKLGAHDNLKLTITQEGNKFTVKESSNFRNIDVVFELGVDFAYSMADGTELTGTWTMEGNKLVGKFKRVDNGKELIAVREISGNELIQTATYEGVEAKRIFKKE
modifications: acrylodan label
notes: acrylodan-labeled rI-FABP mutein: Y14 W, L38 wt, L72 M, Y117 A
As to B1, the Ro is given as 0.34.

B2: L1P1 C3: acrylodan-labeled rI-FABP mutein: Y14 M, L38 wt, L72 W, Y117 wt (protein, UniProt P02693 2-132, looked up, variant Y14M L72W)
Fatty acid-binding protein, …: AFDGTWKVDRNENMEKFMEKMGINVVKRKLGAHDNLKLTITQEGNKFTVKESSNFRNIDVVFELGVDFAYSWADGTELTGTWTMEGNKLVGKFKRVDNGKELIAVREISGNELIQTYTYEGVEAKRIFKKE
modifications: acrylodan label
In the case of B2, the Ro is recorded as 0.60.

B3: L1P17 A1: acrylodan-labeled rI-FABP mutein: Y14 I, L38 wt, L72 W, Y117 wt (protein, UniProt P02693 2-132, looked up, variant Y14I L72W)
Fatty acid-binding protein, …: AFDGTWKVDRNENIEKFMEKMGINVVKRKLGAHDNLKLTITQEGNKFTVKESSNFRNIDVVFELGVDFAYSWADGTELTGTWTMEGNKLVGKFKRVDNGKELIAVREISGNELIQTYTYEGVEAKRIFKKE
modifications: acrylodan label
For B3, the Ro came to 0.56.

B4: L1P7 H4: acrylodan-labeled rI-FABP mutein: Y14 I, L38 M, L72 W, Y117 wt (protein, UniProt P02693 2-132, looked up, variant Y14I L38M L72W)
Fatty acid-binding protein, …: AFDGTWKVDRNENIEKFMEKMGINVVKRKLGAHDNLKMTITQEGNKFTVKESSNFRNIDVVFELGVDFAYSWADGTELTGTWTMEGNKLVGKFKRVDNGKELIAVREISGNELIQTYTYEGVEAKRIFKKE
modifications: acrylodan label
notes: acrylodan-labeled rI-FABP mutein: Y14 I, L38 M, L72 W, Y117 wt
With B4, the Ro is given as 0.62.

B5: L2P22H10: acrylodan-labeled rI-FABP-L72A mutein: M18 I, G31 WT, F55 G, A73 M (protein, UniProt P02693 2-132, looked up, variant M18I F55G L72A A73M)
Fatty acid-binding protein, …: AFDGTWKVDRNENYEKFIEKMGINVVKRKLGAHDNLKLTITQEGNKFTVKESSNGRNIDVVFELGVDFAYSAMDGTELTGTWTMEGNKLVGKFKRVDNGKELIAVREISGNELIQTYTYEGVEAKRIFKKE
modifications: acrylodan label
notes: acrylodan-labeled rI-FABP-L72A mutein: M18 I, G31 WT, F55 G, A73 M
As to B5, the Ro was found to be 0.30.

B6: L1P8 H2: acrylodan-labeled rI-FABP mutein: Y14 M, L38 M, L72 W, Y117 wt (protein, UniProt P02693 2-132, looked up, variant Y14M L38M L72W)
Fatty acid-binding protein, …: AFDGTWKVDRNENMEKFMEKMGINVVKRKLGAHDNLKMTITQEGNKFTVKESSNFRNIDVVFELGVDFAYSWADGTELTGTWTMEGNKLVGKFKRVDNGKELIAVREISGNELIQTYTYEGVEAKRIFKKE
modifications: acrylodan label
notes: acrylodan-labeled rI-FABP mutein: Y14 M, L38 M, L72 W, Y117 wt
B6: the Ro came to 0.69.

B7: L2P16A3: acrylodan-labeled rI-FABP-L72A mutein: M18 I, G31 L, F55 WT, A73 G (protein, UniProt P02693 2-132, looked up, variant M18I G31L L72A A73G)
Fatty acid-binding protein, …: AFDGTWKVDRNENYEKFIEKMGINVVKRKLLAHDNLKLTITQEGNKFTVKESSNFRNIDVVFELGVDFAYSAGDGTELTGTWTMEGNKLVGKFKRVDNGKELIAVREISGNELIQTYTYEGVEAKRIFKKE
modifications: acrylodan label
notes: acrylodan-labeled rI-FABP-L72A mutein: M18 I, G31 L, F55 WT, A73 G
On to B7, for which the Ro is listed as 0.37.

B8: L2P8F11: acrylodan-labeled rI-FABP-L72A mutein: M18 WT, G31 WT, F55 WT, A73 I (protein, UniProt P02693 2-132, looked up, variant L72A A73I)
Fatty acid-binding protein, …: AFDGTWKVDRNENYEKFMEKMGINVVKRKLGAHDNLKLTITQEGNKFTVKESSNFRNIDVVFELGVDFAYSAIDGTELTGTWTMEGNKLVGKFKRVDNGKELIAVREISGNELIQTYTYEGVEAKRIFKKE
modifications: acrylodan label
notes: acrylodan-labeled rI-FABP-L72A mutein: M18 WT, G31 WT, F55 WT, A73 I
B8: the Ro was 0.28.

B9: L2P21G3: acrylodan-labeled rI-FABP-L72A mutein: M18 I, G31 M, F55 M, A73 WT (protein, UniProt P02693 2-132, looked up, variant M18I G31M F55M L72A)
Fatty acid-binding protein, …: AFDGTWKVDRNENYEKFIEKMGINVVKRKLMAHDNLKLTITQEGNKFTVKESSNMRNIDVVFELGVDFAYSAADGTELTGTWTMEGNKLVGKFKRVDNGKELIAVREISGNELIQTYTYEGVEAKRIFKKE
modifications: acrylodan label
notes: acrylodan-labeled rI-FABP-L72A mutein: M18 I, G31 M, F55 M, A73 WT
As to B9, the Ro was 0.36.

B10: L2P23G7: acrylodan-labeled rI-FABP-L72A mutein: M18 V, G31 F, F55 L, A73 WT (protein, UniProt P02693 2-132, looked up, variant M18V G31F F55L L72A)
Fatty acid-binding protein, …: AFDGTWKVDRNENYEKFVEKMGINVVKRKLFAHDNLKLTITQEGNKFTVKESSNLRNIDVVFELGVDFAYSAADGTELTGTWTMEGNKLVGKFKRVDNGKELIAVREISGNELIQTYTYEGVEAKRIFKKE
modifications: acrylodan label
notes: acrylodan-labeled rI-FABP-L72A mutein: M18 V, G31 F, F55 L, A73 WT
On to B10, for which the Ro is given as 0.30.

B11: L1P12 E11: acrylodan-labeled rI-FABP mutein: Y14 L, L38 wt, L72 W, Y117 wt (protein, UniProt P02693 2-132, looked up, variant Y14L L72W)
Fatty acid-binding protein, …: AFDGTWKVDRNENLEKFMEKMGINVVKRKLGAHDNLKLTITQEGNKFTVKESSNFRNIDVVFELGVDFAYSWADGTELTGTWTMEGNKLVGKFKRVDNGKELIAVREISGNELIQTYTYEGVEAKRIFKKE
modifications: acrylodan label
Consider B11, for which the Ro is given as 0.59.

B12: L2P8B8: acrylodan-labeled rI-FABP-L72A mutein: M18 WT, G31 WT, F55 WT, A73 F (protein, UniProt P02693 2-132, looked up, variant L72A A73F)
Fatty acid-binding protein, …: AFDGTWKVDRNENYEKFMEKMGINVVKRKLGAHDNLKLTITQEGNKFTVKESSNFRNIDVVFELGVDFAYSAFDGTELTGTWTMEGNKLVGKFKRVDNGKELIAVREISGNELIQTYTYEGVEAKRIFKKE
modifications: acrylodan label
notes: acrylodan-labeled rI-FABP-L72A mutein: M18 WT, G31 WT, F55 WT, A73 F
As for B12, the Ro turned out to be 0.31.

B13: L2P9E12: acrylodan-labeled rI-FABP-L72A mutein: M18 L, G31 WT, F55 L, A73 I (protein, UniProt P02693 2-132, looked up, variant M18L F55L L72A A73I)
Fatty acid-binding protein, …: AFDGTWKVDRNENYEKFLEKMGINVVKRKLGAHDNLKLTITQEGNKFTVKESSNLRNIDVVFELGVDFAYSAIDGTELTGTWTMEGNKLVGKFKRVDNGKELIAVREISGNELIQTYTYEGVEAKRIFKKE
modifications: acrylodan label
notes: acrylodan-labeled rI-FABP-L72A mutein: M18 L, G31 WT, F55 L, A73 I
For B13, the Ro turned out to be 0.38.

B14: L1P8 D4: acrylodan-labeled rI-FABP mutein: Y14 M, L38 wt, L72 M, Y117 A (protein, UniProt P02693 2-132, looked up, variant Y14M L72M Y117A)
Fatty acid-binding protein, …: AFDGTWKVDRNENMEKFMEKMGINVVKRKLGAHDNLKLTITQEGNKFTVKESSNFRNIDVVFELGVDFAYSMADGTELTGTWTMEGNKLVGKFKRVDNGKELIAVREISGNELIQTATYEGVEAKRIFKKE
modifications: acrylodan label
notes: acrylodan-labeled rI-FABP mutein: Y14 M, L38 wt, L72 M, Y117 A
On to B14, for which the Ro is given as 0.31.

B15: L2P7F4: acrylodan-labeled rI-FABP-L72A mutein: M18 V, G31 V, F55 WT, A73 I (protein, UniProt P02693 2-132, looked up, variant M18V G31V L72A A73I)
Fatty acid-binding protein, …: AFDGTWKVDRNENYEKFVEKMGINVVKRKLVAHDNLKLTITQEGNKFTVKESSNFRNIDVVFELGVDFAYSAIDGTELTGTWTMEGNKLVGKFKRVDNGKELIAVREISGNELIQTYTYEGVEAKRIFKKE
modifications: acrylodan label
notes: acrylodan-labeled rI-FABP-L72A mutein: M18 V, G31 V, F55 WT, A73 I
Regarding B15, the Ro was determined as 0.32.

B16: L2P1E6: acrylodan-labeled rI-FABP-L72A mutein: M18 L, G31 WT, F55 WT, A73 L (protein, UniProt P02693 2-132, looked up, variant M18L L72A A73L)
Fatty acid-binding protein, …: AFDGTWKVDRNENYEKFLEKMGINVVKRKLGAHDNLKLTITQEGNKFTVKESSNFRNIDVVFELGVDFAYSALDGTELTGTWTMEGNKLVGKFKRVDNGKELIAVREISGNELIQTYTYEGVEAKRIFKKE
modifications: acrylodan label
For B16, the Ro is 0.34.

B17: L1P5 A10: acrylodan-labeled rI-FABP mutein: Y14 wt, L38 wt, L72 wt, Y117 A (protein, UniProt P02693 2-132, looked up, variant Y117A)
Fatty acid-binding protein, …: AFDGTWKVDRNENYEKFMEKMGINVVKRKLGAHDNLKLTITQEGNKFTVKESSNFRNIDVVFELGVDFAYSLADGTELTGTWTMEGNKLVGKFKRVDNGKELIAVREISGNELIQTATYEGVEAKRIFKKE
modifications: acrylodan label
notes: acrylodan-labeled rI-FABP mutein: Y14 wt, L38 wt, L72 wt, Y117 A
Consider B17, for which the Ro is reported as 0.28.

(Values after patent US20050244864A1, “Development and use of fluorescent probes of unbound analytes” (priority 2004, published 2005).)
